Measurements taken from publication PMC10280131 (RSC Advances, 2023).

System: brain tissue of AD-induced rats
Experiment: Brain oxidative stress markers
Type: in vivo, rat

COc1cc2c(cc1OC)C(=O)C(CC1CCN(Cc3ccccc3)CC1)C2 (stereo not drawn) [Donepezil, reference compound]
GSH % improvement (AD-induced rats): 35.03% | MDA % improvement (AD-induced rats): 90.64% | GSH (AD-induced rats, n = 8): 23.99 ± 2.00 mg per g tissues | MDA (AD-induced rats, n = 8): 22.43 ± 2.00 mg per g tissues | GSH % change to disease (vs AD group): 76.40% | MDA % change to disease (vs AD group): 32.19%
